# For at least one compound, name, drawing or mass did not settle the structure.
# Experiment: Area under the light absorbance spectrum curve of a 0.001 w/v % aqueous solution (UV meter, trapezoidal formula)
# Assay type: physicochemical
# Details: 0.001 w/v % aqueous solution of the added compound
# Experimental: FIG. 1 is a graph showing the relationship between the absorbance wavelength and the absorbance of various compounds. The measurement method is as follows. A 0.001 w/v % aqueous solution of a drug and various stabilizers was prepared, and the absorbances at each absorbance wavelength in a range of 200 nm to 600 nm were measured. […] Condition: scan speed: medium speed, sampling pitch: 1.0, length of light path: 10 mm, width of a slit: 2.0 nm.
# FIG. 2 is a graph showing a method for calculating the area under the spectrum curve of various compounds. The area under the spectrum curve was calculated by a trapezoidal formula. That is, for the spectrum of each of the compounds, the trapezoidal area was calculated at every sampling pitch (1.0 nm), and a desired area was measured from the total value of the trapezoidal areas in the wavelength range.
smiles,measurement,value
"C[C@@H]1O[C@@H](OC[C@H]2O[C@@H](Oc3c(-c4ccc(O)c(O)c4)oc4cc(O)cc(O)c4c3=O)[C@H](O)[C@@H](O)[C@@H]2O)[C@H](O)[C@H](O)[C@H]1O [rutin, reference compound]",area under the spectrum curve at the wavelength range of 220 nm to 240 nm,4.4
same,area under the spectrum curve at the wavelength range of 280 nm to 300 nm,2.4
